These are yes or no findings as the source states them, for the method shown. Binding calls can cover weak binding; strength is not graded here. Where a sequence is shown, tags or fusion partners need not be part of it.
Target: T1, ProtA-tagged CtNdc1 (Chaetomium thermophilum Ndc1), expressed in S. cerevisiae (Chaetomium thermophilum) (UniProt G0S235)
T1 sequence: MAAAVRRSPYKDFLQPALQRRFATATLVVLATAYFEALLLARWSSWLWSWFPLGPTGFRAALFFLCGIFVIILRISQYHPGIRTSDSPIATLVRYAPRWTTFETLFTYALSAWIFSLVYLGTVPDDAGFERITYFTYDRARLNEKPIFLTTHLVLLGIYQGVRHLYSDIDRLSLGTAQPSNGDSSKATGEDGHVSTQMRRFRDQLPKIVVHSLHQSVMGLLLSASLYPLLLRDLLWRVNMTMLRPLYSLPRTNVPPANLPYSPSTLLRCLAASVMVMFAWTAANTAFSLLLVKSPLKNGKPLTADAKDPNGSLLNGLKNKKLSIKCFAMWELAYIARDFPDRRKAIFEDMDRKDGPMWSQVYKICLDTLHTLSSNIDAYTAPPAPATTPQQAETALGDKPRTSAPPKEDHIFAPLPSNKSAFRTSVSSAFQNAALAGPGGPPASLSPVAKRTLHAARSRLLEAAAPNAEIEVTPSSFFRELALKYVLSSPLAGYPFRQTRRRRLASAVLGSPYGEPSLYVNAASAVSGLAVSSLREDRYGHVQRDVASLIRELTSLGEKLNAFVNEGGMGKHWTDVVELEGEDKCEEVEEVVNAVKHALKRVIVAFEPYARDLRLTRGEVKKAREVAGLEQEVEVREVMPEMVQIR
Experiment: pull-down

| Substance | binding |
| --- | --- |
| C-terminal α-helical domain of CtNup120 (Chaetomium thermophilum) (domain or fragment) | binds |
| C-terminal α-helical domain of CtNup133 (Chaetomium thermophilum) (domain or fragment) | binds |
| β-propeller domain of CtNup120 (Chaetomium thermophilum) (domain or fragment) | no binding |
| β-propeller domain of CtNup133 (Chaetomium thermophilum) (domain or fragment) | no binding |
